Data reported in US9540694 (Johns Hopkins, dated 2017).

Protein sequences, listed by entry. Tags and fused reporters are not part of them.
UniProt P84022, whole entry: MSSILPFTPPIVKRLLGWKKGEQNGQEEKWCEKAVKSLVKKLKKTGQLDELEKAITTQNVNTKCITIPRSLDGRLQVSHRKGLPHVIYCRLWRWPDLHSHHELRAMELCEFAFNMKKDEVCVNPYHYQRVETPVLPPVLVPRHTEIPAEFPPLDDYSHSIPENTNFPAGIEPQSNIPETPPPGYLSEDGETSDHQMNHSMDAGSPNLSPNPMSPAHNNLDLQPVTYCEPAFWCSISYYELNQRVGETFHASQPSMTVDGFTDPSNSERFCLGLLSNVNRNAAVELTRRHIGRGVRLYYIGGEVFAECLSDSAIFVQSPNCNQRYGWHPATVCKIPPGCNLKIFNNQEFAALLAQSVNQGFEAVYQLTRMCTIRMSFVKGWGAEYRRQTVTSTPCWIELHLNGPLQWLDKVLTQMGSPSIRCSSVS

Target: T1, Smad3 fused with the C-terminal part of Yellow Fluorescent protein (YFP) (UniProt P84022 1-425)
T1 construct: BiFC construct; not shown: C-terminal part of YFP
Experiment: Bimolecular Fluorescence Complementation in cells
Procedure: Next, to test the interaction between HEYL and Smad3 in vivo, Bimolecular Fluorescence Complementation analysis was performed. In this assay, N- and C-terminal parts of Yellow Flourescent protein (YFP), were separately fused with HEYL and Smad3, respectively. If HEYL bound to Smad3 in vivo, the N- and C-terminal parts of YFP will come close in close proximity and as a result emit fluorescence. If no interaction takes place between the two molecules, no fluorescence will be emitted.

B1: HoxB7 (other, UniProt P09629 1-217, looked up)
chain: MSSLYYANTLFSKYPASSSVFATGAFPEQTSCAFASNPQRPGYGAGSGASFAASMQGLYPGGGGMAGQSAAGVYAAGYGLEPSSFNMHCAPFEQNLSGVCPGDSAKAAGAKEQRDSDLAAESNFRIYPWMRSSGTDRKRGRQTYTRYQTLELEKEFHYNRYLTRRRRIEIAHTLCLTERQIKIWFQNRRMKWKKENKTAGPGTTGQDRAEAEEEEEE
  binding result: no binding
